Results deposited as PubChem BioAssay AID1259254 (NCATS, 2017).
The whole screen tested about 59,000 reagents; shown is an unselected part. About 1,550 of them (2.6%) count as active. 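G2 share is only a proxy for re-replication; each gene was hit by three separate siRNAs, and active genes were retested.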 The raw values are shown without normalisation. The numbers tell different reagents against one gene apart. The record does not give: the amount of reagent.

Assay: 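Finding genes that stop cells copying their DNA twice in one cycle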 (primary screen)
System: human HCT116 colorectal cancer cells
Reagents: single siRNA against human genes
Time to read-out: 3 days
Measurement: 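Nuclei stained with Hoechst and imaged; cell-cycle phase assigned by DNA content; G2 share scaled per plate, non-targeting siRNA 0%, GMNN siRNA 100%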
Reading the numbers: G2 robust z-score and G2 cells, % of GMNN control: higher = more G2 cells, more excess DNA replication; raw share of cells in G2: higher = larger share of cells with G2 DNA content
Active means: 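Active siRNAs have a G2 robust z of 5 or more median absolute deviations over the median, which in these data means about 38% or higher of GMNN control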

target | siRNA no. | G2 robust z-score | G2 cells, % of GMNN control | raw share of cells in G2 (%) | activity call
MYLK3 | 1 | -0.287 | 0.945 | 5.88 | inactive
MYLK3 | 2 | 5.74 | 43.4 | 21 | active
MYLK3 | 3 | -0.215 | 1.46 | 4.15 | inactive
TMEM216 | 1 | 0.103 | 3.69 | 5.26 | inactive
TMEM216 | 2 | 4.66 | 35.7 | 18.1 | inactive
TMEM216 | 3 | 0.041 | 3.26 | 4.28 | inactive
CAVIN1 | 1 | -1.05 | -4.4 | 1.58 | inactive
CAVIN1 | 2 | -0.598 | -1.24 | 2.73 | inactive
CAVIN1 | 3 | -1.21 | -5.54 | 1.58 | inactive
TMEM121B | 1 | 4.79 | 36.7 | 17.9 | inactive
TMEM121B | 2 | 3.38 | 26.7 | 14.7 | inactive
TMEM121B | 3 | 2.04 | 17.3 | 8.7 | inactive
JPT1 | 1 | 4.84 | 37 | 18 | inactive
JPT1 | 2 | -0.546 | -0.877 | 4.22 | inactive
JPT1 | 3 | 4.6 | 35.3 | 14.4 | inactive
EID3 | 1 | 0.407 | 5.83 | 5.87 | inactive
EID3 | 2 | -0.428 | -0.0468 | 3.4 | inactive
EID3 | 3 | -0.587 | -1.16 | 2.72 | inactive
PTGER2 | 1 | 3.59 | 28.2 | 15.9 | inactive
PTGER2 | 2 | -0.0383 | 2.7 | 5.46 | inactive
PTGER2 | 3 | -0.846 | -2.99 | 2.35 | inactive
EMP2 | 1 | -0.646 | -1.57 | 4.56 | inactive
EMP2 | 2 | -0.444 | -0.154 | 4.03 | inactive
EMP2 | 3 | 0.0432 | 3.27 | 4.8 | inactive
ZNF550 | 1 | -0.841 | -2.95 | 2.08 | inactive
ZNF550 | 2 | 0.664 | 7.64 | 5.82 | inactive
ZNF550 | 3 | -0.127 | 2.07 | 4.25 | inactive
GMPR2 | 1 | 0.645 | 7.51 | 9.36 | inactive
GMPR2 | 2 | 0.24 | 4.65 | 5.96 | inactive
GMPR2 | 3 | -0.844 | -2.97 | 2.66 | inactive
